The supplement of paper PMC10735217
Structures can show the parent of a compound that is named as a salt. Some of the results follow. Single values are uncertain here, since repeats match poorly.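 In a drug-repurposing library screen, luminescence reads luciferase driven by eight TEAD-binding elements, stably integrated into human kidney-derived cells. Compounds scoring over five robust Z scores above the plate mean are called hits.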

Tested on: HEK293A TEAD-LUC reporter
Experiment: TEAD-luciferase reporter activity (YAP activation), robust Z score vs plate; higher = stronger YAP/TEAD activation
Details: 24 h

C=C(C)[C@H]1CN[C@H](C(=O)O)[C@H]1CC(=O)O
TEAD-luciferase reporter activity (compound concentration: 200 nM): inactive: -0.367
TEAD-luciferase reporter activity (compound concentration: 2 uM): inactive: -0.76
TEAD-luciferase reporter activity (compound concentration: 10 uM): inactive: 0.257

CCC1=C(C)NN=C(c2ccc(OC)c(OC)c2)c2cc(OC)c(OC)cc21 [dextofisopam]
TEAD-luciferase reporter activity (compound concentration: 200 nM): inactive: 2.61
TEAD-luciferase reporter activity (compound concentration: 2 uM): inactive: -0.674
TEAD-luciferase reporter activity (compound concentration: 10 uM): inactive: -1.55

O=C(Nc1c(Cl)cncc1Cl)C(=O)c1cn(Cc2ccc(F)cc2)c2ncccc12 [Ronomilast]
TEAD-luciferase reporter activity (compound concentration: 200 nM): inactive: -0.436
TEAD-luciferase reporter activity (compound concentration: 2 uM): inactive: -0.902
TEAD-luciferase reporter activity (compound concentration: 10 uM): inactive: -0.658

CC(=O)NC(Cc1ccc(N(CCCl)CCCl)cc1)C(=O)O (stereo not drawn)
TEAD-luciferase reporter activity (compound concentration: 200 nM): inactive: 0.0573
TEAD-luciferase reporter activity (compound concentration: 2 uM): inactive: -0.687
TEAD-luciferase reporter activity (compound concentration: 10 uM): inactive: 1.08

COc1cccc2c1C(=O)c1c(O)c3c(c(O)c1C2=O)C[C@@](O)(C(=O)CO)C[C@@H]3O[C@H]1C[C@H](N2CCO[C@H](OC)C2)[C@H](O)[C@H](C)O1
TEAD-luciferase reporter activity (compound concentration: 200 nM): inactive: -1.26
TEAD-luciferase reporter activity (compound concentration: 2 uM): inactive: -2.32
TEAD-luciferase reporter activity (compound concentration: 10 uM): inactive: -1.18

C[C@H]1CCCC(O)CCC/C=C/c2cc(O)cc(O)c2C(=O)O1 (stereo partly drawn)
TEAD-luciferase reporter activity (compound concentration: 200 nM): inactive: -0.686
TEAD-luciferase reporter activity (compound concentration: 2 uM): inactive: -1.9
TEAD-luciferase reporter activity (compound concentration: 10 uM): inactive: -1.28

C[C@]12C[C@H]3S[C@H]3C[C@@H]1CC[C@@H]1[C@@H]2CC[C@]2(C)[C@@H](O)CC[C@@H]12
TEAD-luciferase reporter activity (compound concentration: 200 nM): inactive: -0.232
TEAD-luciferase reporter activity (compound concentration: 2 uM): inactive: -1.28
TEAD-luciferase reporter activity (compound concentration: 10 uM): inactive: -0.39

O=C1C2CCN(CC2)C1(CO)CO
TEAD-luciferase reporter activity (compound concentration: 200 nM): inactive: -0.0669
TEAD-luciferase reporter activity (compound concentration: 2 uM): inactive: -1.04
TEAD-luciferase reporter activity (compound concentration: 10 uM): inactive: 0.445

CC1NCCOC1c1ccccc1 (stereo not drawn)
TEAD-luciferase reporter activity (compound concentration: 200 nM): inactive: -0.0142
TEAD-luciferase reporter activity (compound concentration: 2 uM): inactive: -0.832
TEAD-luciferase reporter activity (compound concentration: 10 uM): inactive: -1.13

CC(C)Cc1ccc(C(Nc2cccc(C(=O)c3cn(CCCC(=O)O)c4ccccc34)c2)c2ccc(CC(C)C)cc2)cc1
TEAD-luciferase reporter activity (compound concentration: 200 nM): inactive: -0.588
TEAD-luciferase reporter activity (compound concentration: 2 uM): inactive: -1.38
TEAD-luciferase reporter activity (compound concentration: 10 uM): inactive: -0.882

CC(C)(NC(=O)c1cc2c(n(CC3CCCCC3)c1=O)CCCCCC2)C(=O)NN
TEAD-luciferase reporter activity (compound concentration: 200 nM): inactive: -1.02
TEAD-luciferase reporter activity (compound concentration: 2 uM): inactive: -0.855
TEAD-luciferase reporter activity (compound concentration: 10 uM): inactive: -0.379

NC(=O)c1cccc([C@H]2C[C@H]3CC[C@@H](C2)N3CCN(CC2CCCCC2)C(=O)[C@@H](O)CO)c1 [Axelopran]
TEAD-luciferase reporter activity (compound concentration: 200 nM): inactive: -0.871
TEAD-luciferase reporter activity (compound concentration: 2 uM): inactive: 0.0308
TEAD-luciferase reporter activity (compound concentration: 10 uM): inactive: 1.66

CC(C)OC(=O)N[C@H]1Cc2c(n(Cc3ccccn3)c3ccc(C#N)cc23)C1
TEAD-luciferase reporter activity (compound concentration: 200 nM): inactive: -0.72
TEAD-luciferase reporter activity (compound concentration: 2 uM): inactive: -1.57
TEAD-luciferase reporter activity (compound concentration: 10 uM): inactive: 0.819

CC12CCC3C4CCC(=O)C=C4CCC3C1CCC2OC(=O)CCc1ccccc1 (stereo not drawn) [Nandrolone phenylpropionate]
TEAD-luciferase reporter activity (compound concentration: 200 nM): inactive: 2.28
TEAD-luciferase reporter activity (compound concentration: 2 uM): inactive: -1.88
TEAD-luciferase reporter activity (compound concentration: 10 uM): inactive: -1.51

CC(C)(SCC(=O)Nc1ccc([As](O)O)cc1)[C@@H](N)C(=O)O
TEAD-luciferase reporter activity (compound concentration: 200 nM): inactive: -0.0772
TEAD-luciferase reporter activity (compound concentration: 2 uM): inactive: 0.721
TEAD-luciferase reporter activity (compound concentration: 10 uM): inactive: -0.177

CN1CCC=C2c3nc(N)sc3CCC21 (stereo not drawn)
TEAD-luciferase reporter activity (compound concentration: 200 nM): inactive: -0.836
TEAD-luciferase reporter activity (compound concentration: 2 uM): inactive: -0.973
TEAD-luciferase reporter activity (compound concentration: 10 uM): inactive: -1.22

CC(=O)C1CC[C@@]2(O)C3CCC4=CC(=O)CCC4(C)C3CCC12C (stereo partly drawn)
TEAD-luciferase reporter activity (compound concentration: 200 nM): inactive: 1.83
TEAD-luciferase reporter activity (compound concentration: 2 uM): inactive: -0.726
TEAD-luciferase reporter activity (compound concentration: 10 uM): inactive: 1.37

CC(C)[C@@]1(NC(=O)[C@@H]2C[C@@H]3c4cccc5[nH]cc(c45)C[C@H]3N(C)C2)O[C@@]2(O)[C@@H]3CCCN3C(=O)[C@H](Cc3ccccc3)N2C1=O
TEAD-luciferase reporter activity (compound concentration: 200 nM): inactive: -3.1
TEAD-luciferase reporter activity (compound concentration: 2 uM): inactive: -0.859
TEAD-luciferase reporter activity (compound concentration: 10 uM): inactive: -0.0149

C=CCC1(C(C)C#CCC)C(=O)N=C(O)N(C)C1=O (stereo not drawn) [Methohexital]
TEAD-luciferase reporter activity (compound concentration: 200 nM): inactive: -0.771
TEAD-luciferase reporter activity (compound concentration: 2 uM): inactive: -0.955
TEAD-luciferase reporter activity (compound concentration: 10 uM): inactive: 2.08

Cc1cccc[n+]1[Pt-2]([NH3+])([Cl])[Cl] [picoplatin]
TEAD-luciferase reporter activity (compound concentration: 2 uM): inactive: 0.0759

Cc1cccc[n+]1[Pt-2]([NH3+])([Cl])[Cl]
TEAD-luciferase reporter activity (compound concentration: 200 nM): inactive: 1.81
TEAD-luciferase reporter activity (compound concentration: 10 uM): inactive: -0.196

C[As](C)SC[C@H](NC(=O)CC[C@H](N)C(=O)O)C(=O)NCC(=O)O [Darinaparsin]
TEAD-luciferase reporter activity (compound concentration: 200 nM): inactive: -1
TEAD-luciferase reporter activity (compound concentration: 2 uM): inactive: -1.77
TEAD-luciferase reporter activity (compound concentration: 10 uM): inactive: 1.92

Cc1nnc2n1-c1ccc(Cl)cc1C(c1ccccc1Cl)=NC2 [Triazolam]
TEAD-luciferase reporter activity (compound concentration: 200 nM): inactive: -1.32
TEAD-luciferase reporter activity (compound concentration: 10 uM): inactive: 1.34

C[CH2][Hg][S]c1ccccc1C(=O)[O-]
TEAD-luciferase reporter activity (compound concentration: 200 nM): inactive: 2.65
TEAD-luciferase reporter activity (compound concentration: 2 uM): inactive: 1.02
TEAD-luciferase reporter activity (compound concentration: 10 uM): active: 9.15

C[N+]1(C)CCCC1COC(=O)C(O)(c1ccccc1)c1ccccc1 (stereo not drawn) [Poldine Methylsulfate]
TEAD-luciferase reporter activity (compound concentration: 200 nM): inactive: 0.841
TEAD-luciferase reporter activity (compound concentration: 2 uM): inactive: 1.67
TEAD-luciferase reporter activity (compound concentration: 10 uM): inactive: 0.695

COc1ccc2c3c1O[C@H]1[C@@H](O)C=C[C@H]4[C@@H](C2)N(C)CC[C@@]341 [Codeine phosphate]
TEAD-luciferase reporter activity (compound concentration: 200 nM): inactive: 0.232
TEAD-luciferase reporter activity (compound concentration: 2 uM): inactive: 1.19
TEAD-luciferase reporter activity (compound concentration: 10 uM): inactive: -2.44

O=C1NC(=O)C(c2ccccc2)(c2ccccc2)C(=O)N1
TEAD-luciferase reporter activity (compound concentration: 200 nM): inactive: -1.03
TEAD-luciferase reporter activity (compound concentration: 2 uM): inactive: 1.47
TEAD-luciferase reporter activity (compound concentration: 10 uM): inactive: -0.667

CC(C)(N1CC1C#N)N1CC1C(N)=O (stereo not drawn) [azimexon]
TEAD-luciferase reporter activity (compound concentration: 200 nM): inactive: 0.552
TEAD-luciferase reporter activity (compound concentration: 2 uM): inactive: -1.41
TEAD-luciferase reporter activity (compound concentration: 10 uM): inactive: 1.09

COc1ccc(C(=O)N2CCCC2C(=O)N2CCC(N3CCCC3=O)CC2)cc1 (stereo not drawn)
TEAD-luciferase reporter activity (compound concentration: 200 nM): inactive: -0.979
TEAD-luciferase reporter activity (compound concentration: 10 uM): inactive: 4.57

C=CCN1C[C@H](C)N(C(c2ccsc2)c2cccc(O)c2)C[C@H]1C (stereo partly drawn)
TEAD-luciferase reporter activity (compound concentration: 200 nM): inactive: 1.75
TEAD-luciferase reporter activity (compound concentration: 2 uM): inactive: -0.612
TEAD-luciferase reporter activity (compound concentration: 10 uM): inactive: -0.807

O=C(NCc1ccncc1)c1cnc(Nc2cccc(Cl)c2)nc1C(F)(F)F
TEAD-luciferase reporter activity (compound concentration: 200 nM): inactive: -0.312
TEAD-luciferase reporter activity (compound concentration: 2 uM): inactive: -0.511
TEAD-luciferase reporter activity (compound concentration: 10 uM): inactive: -0.0144

CC(C)(NC(=O)c1cc2c(n(CC3CCCCC3)c1=O)CCCCCC2)C(=O)N1CCC(NS(C)(=O)=O)C1 (stereo not drawn)
TEAD-luciferase reporter activity (compound concentration: 200 nM): inactive: -0.453
TEAD-luciferase reporter activity (compound concentration: 2 uM): inactive: 0.197
TEAD-luciferase reporter activity (compound concentration: 10 uM): inactive: 0.55

Cc1cccc(C(O)c2c[nH]cn2)c1C (stereo not drawn)
TEAD-luciferase reporter activity (compound concentration: 200 nM): inactive: 0.41
TEAD-luciferase reporter activity (compound concentration: 2 uM): inactive: -0.836
TEAD-luciferase reporter activity (compound concentration: 10 uM): inactive: 0.123

CCC(=O)C(CCN1CCOCC1)(c1ccccc1)c1ccccc1
TEAD-luciferase reporter activity (compound concentration: 200 nM): inactive: -1.11
TEAD-luciferase reporter activity (compound concentration: 2 uM): inactive: 0.389
TEAD-luciferase reporter activity (compound concentration: 10 uM): inactive: -1.45

CC(C)CN/C(=N/C#N)c1cccnc1
TEAD-luciferase reporter activity (compound concentration: 200 nM): inactive: 2.06
TEAD-luciferase reporter activity (compound concentration: 2 uM): inactive: 4.46
TEAD-luciferase reporter activity (compound concentration: 10 uM): inactive: -0.264

Fc1cccc(Br)c1NC1=NCCN1 [Romifidine hydrochloride]
TEAD-luciferase reporter activity (compound concentration: 200 nM): inactive: 0.915
TEAD-luciferase reporter activity (compound concentration: 2 uM): inactive: 0.894
TEAD-luciferase reporter activity (compound concentration: 10 uM): inactive: 1.27
